Experimental data: patent US20260265267A1, “NOVEL COMPOUNDS WITH MTORC2-INHIBITORY ACTIVITY AND USES THEREOF” (Aliad Biopharma, priority 2023, published 2026)

What was measured:
Format in all cases: in vivo
[1] = test system: 5×FAD Alzheimer's disease model mice; experiment: Y-maze test in 5×FAD mice (short-term memory); conditions: 1 mg/kg, intraperitoneal, 2 weeks
Method: (§1) In order to evaluate the efficacy of HN2210, HN2213, and HN2313 on Alzheimer's disease-related symptoms, specifically regarding 1) memory and cognitive impairment, 2) amyloid plaques, 3) neurofibrillary tangles (NFTs), and 4) brain inflammation, an in vivo efficacy assessment of HN2210, HN2213 and HN2313 was conducted using 5×FAD Alzheimer's disease model mice. The 5×FAD mice were purchased from Jackson Lab, USA (Cat #034840-JAX) and crossed once with C57bl6 mice to produce F1 heterozygous offspring (Het). The compound was administered via intraperitoneal injection to 6-month-old 5×FAD Het mice, followed by behavioral testing. The normal control mice, which were littermates of the 5×FAD Het mice, were aged to 6 months and received DMSO injection at the same volume. […]
Specifically, the Y-maze test was performed using a Y-shaped structure maze made of black acrylic with each arm at a […], and light and a camera were installed on the ceiling, and we measured the number of entries for white mice to freely enter each arm while the surroundings were covered with a curtain. […] When all four paws of a mice entered an arm, it was considered as fully entered, and the number of entries into each arm without repetition was recorded. The number of entries into each of the three different arms was divided by the total number of entries into all arms minus 2, and expressed as a percentage. […]

[2] = test system: 5×FAD Alzheimer's disease model mice; experiment: Morris water maze test in 5×FAD mice (spatial perceptive ability); conditions: 1 mg/kg, 2 weeks
Method: as §1
Specifically, a 50 cm deep water tank filled with water (25.0±1.0° C.) was divided into four equal quadrants, and a platform (12 cm diameter) was placed 3 mm below the water surface in the center of one quadrant. […] The following day, the platform was removed, and the time the experimental animal spent in the target quadrant was measured (probe trial). Videos were recorded and analyzed using the Ethovision video tracking system (Noldus Information Technology, Wageningen, Netherlands). […]

[3] = test system: 5×FAD Alzheimer's disease model mice; experiment: Passive avoidance test in 5×FAD mice (long-term memory); conditions: 1 mg/kg, 2 weeks (FIG. 7)
Method: as §1
Specifically, to mice trained to avoid bright light three times daily, an electric foot shock (1 mA, 300 g) was applied for 3 seconds in a dark room at the same time on the next day. After 24 hours, the mice were placed again in the same room, and the avoidance response by light, that is, the time taken to move from the bright room to the dark room was measured. At 24 hours after habituation training, the mice were placed back into the bright room, and the latency time for entering the dark room was recorded over a period of 720 seconds. […]

For `COc1cc2c(cc1OC)C(=O)C(CC1CCN(Cc3ccccc3)CC1)C2` (stereo not shown) [donepezil, reference compound], the “Y-maze % alternation, effect” value [1] was “did not result in significant increase”, the “Morris water maze number of target crossings, effect” value [2] was “did not result in significant increases” and the “Morris water maze time spent in the target quadrant, effect” value [2] was “did not result in significant increases”. For the same compound, the “passive avoidance latency time, % of the normal control level” value [3] was “about 38%”.
